Data taken from PMC12166428.
These are yes or no findings as the source states them, for the method shown. In cells and extracts the contact can be indirect. Some binding calls cover weakened binding; strength is not graded here.

Protein sequences, listed by entry. Tags and fused reporters are not part of them.
UniProt Q08211: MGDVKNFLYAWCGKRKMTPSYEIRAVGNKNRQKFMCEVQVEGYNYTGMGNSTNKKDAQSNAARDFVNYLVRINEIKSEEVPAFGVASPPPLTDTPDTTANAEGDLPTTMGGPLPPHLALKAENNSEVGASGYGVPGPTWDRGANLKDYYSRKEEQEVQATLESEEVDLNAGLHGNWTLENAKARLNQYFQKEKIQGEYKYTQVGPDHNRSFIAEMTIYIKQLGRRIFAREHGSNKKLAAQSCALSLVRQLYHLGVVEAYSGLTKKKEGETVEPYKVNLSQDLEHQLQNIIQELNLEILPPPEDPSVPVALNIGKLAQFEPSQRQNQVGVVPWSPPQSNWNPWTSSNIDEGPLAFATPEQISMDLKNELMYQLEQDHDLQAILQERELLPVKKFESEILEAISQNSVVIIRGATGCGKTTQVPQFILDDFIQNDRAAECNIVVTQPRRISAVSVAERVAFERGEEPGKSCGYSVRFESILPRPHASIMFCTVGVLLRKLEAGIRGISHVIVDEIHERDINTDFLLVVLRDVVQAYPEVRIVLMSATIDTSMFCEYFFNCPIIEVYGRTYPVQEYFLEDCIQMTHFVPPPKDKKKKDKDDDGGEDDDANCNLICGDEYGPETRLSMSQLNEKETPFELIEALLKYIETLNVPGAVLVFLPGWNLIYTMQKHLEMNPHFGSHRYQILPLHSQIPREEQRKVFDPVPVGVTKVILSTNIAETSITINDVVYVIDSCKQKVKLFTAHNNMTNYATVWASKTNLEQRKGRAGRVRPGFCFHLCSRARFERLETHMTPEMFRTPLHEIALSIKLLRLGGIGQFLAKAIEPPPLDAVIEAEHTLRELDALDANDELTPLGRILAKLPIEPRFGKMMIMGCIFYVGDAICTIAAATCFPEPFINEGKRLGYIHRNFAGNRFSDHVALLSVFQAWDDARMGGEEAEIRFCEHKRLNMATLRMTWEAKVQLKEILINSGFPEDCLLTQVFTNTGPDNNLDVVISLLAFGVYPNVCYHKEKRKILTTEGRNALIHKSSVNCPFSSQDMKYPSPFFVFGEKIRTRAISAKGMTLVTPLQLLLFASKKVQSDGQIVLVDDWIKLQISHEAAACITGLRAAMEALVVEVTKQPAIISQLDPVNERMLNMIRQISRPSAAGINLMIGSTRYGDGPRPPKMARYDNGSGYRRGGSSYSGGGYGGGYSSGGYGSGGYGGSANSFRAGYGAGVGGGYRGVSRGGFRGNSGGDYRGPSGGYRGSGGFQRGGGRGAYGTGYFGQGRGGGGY
UniProt P05198: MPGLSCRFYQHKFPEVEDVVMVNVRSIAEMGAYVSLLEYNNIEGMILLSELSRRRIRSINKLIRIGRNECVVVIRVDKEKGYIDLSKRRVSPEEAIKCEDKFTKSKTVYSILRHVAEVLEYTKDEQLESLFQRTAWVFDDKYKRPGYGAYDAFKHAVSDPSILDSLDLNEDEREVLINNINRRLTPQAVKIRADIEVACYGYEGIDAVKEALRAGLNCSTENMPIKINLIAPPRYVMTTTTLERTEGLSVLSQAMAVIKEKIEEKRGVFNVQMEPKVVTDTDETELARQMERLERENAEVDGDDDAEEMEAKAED
UniProt P55884: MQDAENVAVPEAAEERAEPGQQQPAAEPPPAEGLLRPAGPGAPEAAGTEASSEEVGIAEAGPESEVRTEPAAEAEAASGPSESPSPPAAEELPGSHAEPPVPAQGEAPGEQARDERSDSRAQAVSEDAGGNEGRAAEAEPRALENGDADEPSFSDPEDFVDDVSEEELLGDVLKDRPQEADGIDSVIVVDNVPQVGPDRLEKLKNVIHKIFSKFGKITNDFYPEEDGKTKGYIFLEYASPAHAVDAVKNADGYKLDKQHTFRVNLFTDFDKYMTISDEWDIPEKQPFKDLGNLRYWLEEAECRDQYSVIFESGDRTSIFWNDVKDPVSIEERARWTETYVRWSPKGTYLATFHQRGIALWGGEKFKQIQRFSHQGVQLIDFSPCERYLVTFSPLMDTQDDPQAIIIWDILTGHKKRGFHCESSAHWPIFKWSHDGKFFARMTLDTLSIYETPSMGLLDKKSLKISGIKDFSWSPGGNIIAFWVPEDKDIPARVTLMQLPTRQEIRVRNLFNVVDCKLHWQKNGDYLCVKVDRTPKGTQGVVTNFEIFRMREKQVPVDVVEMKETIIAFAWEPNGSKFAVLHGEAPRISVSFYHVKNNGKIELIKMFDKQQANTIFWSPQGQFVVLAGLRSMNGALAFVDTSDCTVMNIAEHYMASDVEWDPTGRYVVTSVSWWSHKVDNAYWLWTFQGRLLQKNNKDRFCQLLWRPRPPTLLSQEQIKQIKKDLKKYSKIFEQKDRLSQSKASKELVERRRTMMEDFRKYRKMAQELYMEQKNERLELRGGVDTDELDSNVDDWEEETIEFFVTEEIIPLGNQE

Target: DExH-box helicase-9 (DHX9) (human (endogenous in HeLa)) (UniProt Q08211)
Assay: co-IP; HeLa cells with or without 100 uM H2O2 for 1 h, lysed in RIPA buffer (RNase inhibitor in the indicated groups); DHX9 antibody (sc-137232) or mouse IgG overnight at 4 C, protein A/G agarose beads; Western blot

## eIF2α (from UniProt P05198 1-315)
  binding: no binding

## eIF3η (from UniProt P55884 1-814)
  binding: binds
